No constants are given. Whether binding was seen depends on the method and setting. In cells and extracts the contact can be indirect. Binding calls can cover weak binding; strength is not graded here. For some assays here: Tags and fused reporters may be left off the sequences shown.
Experiments:
Assay in all cases: co-IP
[1] = target: T1, FLAG-tagged ubiquitin-like with PHD and RING finger domains 1 (UHRF1) (UniProt Q96T88)
T1 sequence: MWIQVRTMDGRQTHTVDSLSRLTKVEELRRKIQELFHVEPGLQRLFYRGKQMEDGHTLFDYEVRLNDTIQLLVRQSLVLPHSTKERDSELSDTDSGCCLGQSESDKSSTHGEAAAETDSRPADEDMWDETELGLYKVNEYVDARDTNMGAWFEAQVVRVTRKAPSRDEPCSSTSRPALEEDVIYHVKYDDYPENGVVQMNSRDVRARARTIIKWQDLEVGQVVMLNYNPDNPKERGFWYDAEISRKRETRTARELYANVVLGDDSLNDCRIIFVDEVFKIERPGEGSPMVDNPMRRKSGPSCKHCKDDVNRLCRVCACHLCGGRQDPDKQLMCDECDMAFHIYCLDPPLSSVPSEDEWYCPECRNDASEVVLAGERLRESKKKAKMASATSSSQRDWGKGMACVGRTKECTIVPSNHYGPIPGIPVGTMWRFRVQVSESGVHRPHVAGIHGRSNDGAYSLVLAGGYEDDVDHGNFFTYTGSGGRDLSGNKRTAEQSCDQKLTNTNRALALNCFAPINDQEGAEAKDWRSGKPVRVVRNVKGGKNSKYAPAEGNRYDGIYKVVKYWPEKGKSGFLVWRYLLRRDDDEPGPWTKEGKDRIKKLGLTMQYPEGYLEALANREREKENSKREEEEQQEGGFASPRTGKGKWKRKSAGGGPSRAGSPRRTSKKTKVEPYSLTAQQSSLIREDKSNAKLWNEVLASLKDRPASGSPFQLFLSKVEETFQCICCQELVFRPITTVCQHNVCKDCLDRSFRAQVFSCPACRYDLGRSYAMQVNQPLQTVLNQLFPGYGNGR

[2] = target: T2, FLAG-tagged checkpoint with FHA and RING finger domains (CHFR) (UniProt Q96EP1)
T2 sequence: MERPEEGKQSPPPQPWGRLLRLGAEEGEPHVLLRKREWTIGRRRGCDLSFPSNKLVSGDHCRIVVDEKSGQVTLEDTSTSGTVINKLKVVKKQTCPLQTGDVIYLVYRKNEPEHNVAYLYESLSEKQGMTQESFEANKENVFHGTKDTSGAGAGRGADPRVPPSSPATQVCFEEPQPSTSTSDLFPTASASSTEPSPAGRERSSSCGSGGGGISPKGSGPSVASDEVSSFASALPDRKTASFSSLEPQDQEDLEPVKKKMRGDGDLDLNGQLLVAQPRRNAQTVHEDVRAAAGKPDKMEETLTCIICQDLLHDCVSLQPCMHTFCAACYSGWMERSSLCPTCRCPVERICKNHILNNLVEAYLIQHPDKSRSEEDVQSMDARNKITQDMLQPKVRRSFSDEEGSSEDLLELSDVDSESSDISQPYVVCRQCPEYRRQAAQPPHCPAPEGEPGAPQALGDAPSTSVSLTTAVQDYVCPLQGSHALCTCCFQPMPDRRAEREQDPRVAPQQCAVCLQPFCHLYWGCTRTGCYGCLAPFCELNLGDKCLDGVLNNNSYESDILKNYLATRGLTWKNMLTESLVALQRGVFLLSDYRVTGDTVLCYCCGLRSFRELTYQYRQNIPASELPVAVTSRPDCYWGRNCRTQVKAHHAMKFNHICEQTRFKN

[3] = target: MYC-tagged PF-8 (KSHV processivity factor, wild type) (Kaposi's sarcoma-associated herpesvirus (KSHV; genomic DNA from BC-3 cells))
[4] = target: FLAG-tagged PF-8, stably expressed from the lentiviral vector C274-FLAG-PF8 (Kaposi's sarcoma-associated herpesvirus (KSHV; genomic DNA from BC-3 cells))

With “MYC-tagged PF-8 (KSHV processivity factor, wild type)” the binding [1] was “binds” and the binding [2] was “binds”.

B1: endogenous CHFR (enzyme, UniProt Q96EP1 1-664)
chain: MERPEEGKQSPPPQPWGRLLRLGAEEGEPHVLLRKREWTIGRRRGCDLSFPSNKLVSGDHCRIVVDEKSGQVTLEDTSTSGTVINKLKVVKKQTCPLQTGDVIYLVYRKNEPEHNVAYLYESLSEKQGMTQESFEANKENVFHGTKDTSGAGAGRGADPRVPPSSPATQVCFEEPQPSTSTSDLFPTASASSTEPSPAGRERSSSCGSGGGGISPKGSGPSVASDEVSSFASALPDRKTASFSSLEPQDQEDLEPVKKKMRGDGDLDLNGQLLVAQPRRNAQTVHEDVRAAAGKPDKMEETLTCIICQDLLHDCVSLQPCMHTFCAACYSGWMERSSLCPTCRCPVERICKNHILNNLVEAYLIQHPDKSRSEEDVQSMDARNKITQDMLQPKVRRSFSDEEGSSEDLLELSDVDSESSDISQPYVVCRQCPEYRRQAAQPPHCPAPEGEPGAPQALGDAPSTSVSLTTAVQDYVCPLQGSHALCTCCFQPMPDRRAEREQDPRVAPQQCAVCLQPFCHLYWGCTRTGCYGCLAPFCELNLGDKCLDGVLNNNSYESDILKNYLATRGLTWKNMLTESLVALQRGVFLLSDYRVTGDTVLCYCCGLRSFRELTYQYRQNIPASELPVAVTSRPDCYWGRNCRTQVKAHHAMKFNHICEQTRFKN
For B1, the binding [3] was “binds” and the binding [4] was “binds”.

B2: endogenous UHRF1 (enzyme, UniProt Q96T88 1-793)
chain: MWIQVRTMDGRQTHTVDSLSRLTKVEELRRKIQELFHVEPGLQRLFYRGKQMEDGHTLFDYEVRLNDTIQLLVRQSLVLPHSTKERDSELSDTDSGCCLGQSESDKSSTHGEAAAETDSRPADEDMWDETELGLYKVNEYVDARDTNMGAWFEAQVVRVTRKAPSRDEPCSSTSRPALEEDVIYHVKYDDYPENGVVQMNSRDVRARARTIIKWQDLEVGQVVMLNYNPDNPKERGFWYDAEISRKRETRTARELYANVVLGDDSLNDCRIIFVDEVFKIERPGEGSPMVDNPMRRKSGPSCKHCKDDVNRLCRVCACHLCGGRQDPDKQLMCDECDMAFHIYCLDPPLSSVPSEDEWYCPECRNDASEVVLAGERLRESKKKAKMASATSSSQRDWGKGMACVGRTKECTIVPSNHYGPIPGIPVGTMWRFRVQVSESGVHRPHVAGIHGRSNDGAYSLVLAGGYEDDVDHGNFFTYTGSGGRDLSGNKRTAEQSCDQKLTNTNRALALNCFAPINDQEGAEAKDWRSGKPVRVVRNVKGGKNSKYAPAEGNRYDGIYKVVKYWPEKGKSGFLVWRYLLRRDDDEPGPWTKEGKDRIKKLGLTMQYPEGYLEALANREREKENSKREEEEQQEGGFASPRTGKGKWKRKSAGGGPSRAGSPRRTSKKTKVEPYSLTAQQSSLIREDKSNAKLWNEVLASLKDRPASGSPFQLFLSKVEETFQCICCQELVFRPITTVCQHNVCKDCLDRSFRAQVFSCPACRYDLGRSYAMQVNQPLQTVLNQLFPGYGNGR
B2 was tested, and the binding [4] was “binds”.
